Differences between knockout arms are mostly noise.
Test system: SKBR3
Experiment: relative cell number vs DMSO control (72 h) (% of DMSO); higher = less growth inhibition (more cells)
Protocol: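 QMAP-Seq: a pool of 5 breast cancer cell lines (ZR-75-1, SKBR3, HCC-38, MDA-MB-231, BT-20), each carrying 12 doxycycline-inducible Cas9 sgRNA perturbations (11 knockouts plus non-targeting sgNT), was treated with compounds for 72 h at four 10-fold doses (10 nM-10 uM or 1 nM-1 uM range). Barcodes were amplified and sequenced, and cell number was interpolated from 293T spike-in standard curves. The result is expressed as % of the median of DMSO wells. Two biological replicates.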

NC(=O)Nc1sc(-c2ccc(F)cc2)cc1C(N)=O [TPCA1]
Settings | relative cell number
sgRNA knockout: sgATF3, 10 nM | 103
sgRNA knockout: sgATF3, 100 nM | 120
sgRNA knockout: sgATF3, 1000 nM | 109
sgRNA knockout: sgATF3, 10000 nM | 70.9
sgRNA knockout: sgATF4, 10 nM | 95.7
sgRNA knockout: sgATF4, 100 nM | 102
sgRNA knockout: sgATF4, 1000 nM | 90
sgRNA knockout: sgATF4, 10000 nM | 67.6
sgRNA knockout: sgATF6, 10 nM | 111
sgRNA knockout: sgATF6, 100 nM | 80.5
sgRNA knockout: sgATF6, 1000 nM | 109
sgRNA knockout: sgATF6, 10000 nM | 66.1
sgRNA knockout: sgATG7, 10 nM | 99.9
sgRNA knockout: sgATG7, 100 nM | 88.6
sgRNA knockout: sgATG7, 1000 nM | 113
sgRNA knockout: sgATG7, 10000 nM | 67.9
sgRNA knockout: sgERN1, 10 nM | 110
sgRNA knockout: sgERN1, 100 nM | 120
sgRNA knockout: sgERN1, 1000 nM | 123
sgRNA knockout: sgERN1, 10000 nM | 69.5
sgRNA knockout: sgHSF1, 10 nM | 94.2
sgRNA knockout: sgHSF1, 100 nM | 98.7
sgRNA knockout: sgHSF1, 1000 nM | 104
sgRNA knockout: sgHSF1, 10000 nM | 54.3
sgRNA knockout: sgHSF2, 10 nM | 113
sgRNA knockout: sgHSF2, 100 nM | 92.5
sgRNA knockout: sgHSF2, 1000 nM | 96.4
sgRNA knockout: sgHSF2, 10000 nM | 73.6
sgRNA knockout: sgKEAP1, 10 nM | 99.4
sgRNA knockout: sgKEAP1, 100 nM | 99.1
sgRNA knockout: sgKEAP1, 1000 nM | 93.1
sgRNA knockout: sgKEAP1, 10000 nM | 65.3
sgRNA knockout: sgNFE2L2, 10 nM | 95
sgRNA knockout: sgNFE2L2, 100 nM | 88.9
sgRNA knockout: sgNFE2L2, 1000 nM | 117
sgRNA knockout: sgNFE2L2, 10000 nM | 64.8
sgRNA knockout: sgSLC35F2, 10 nM | 98.4
sgRNA knockout: sgSLC35F2, 100 nM | 92.6
sgRNA knockout: sgSLC35F2, 1000 nM | 104
sgRNA knockout: sgSLC35F2, 10000 nM | 73
sgRNA knockout: sgXBP1, 10 nM | 102
sgRNA knockout: sgXBP1, 100 nM | 113
sgRNA knockout: sgXBP1, 1000 nM | 109
sgRNA knockout: sgXBP1, 10000 nM | 81.6

Cn1nnc2c(C(N)=O)ncn2c1=O [Temozolomide]
Settings | relative cell number
sgRNA knockout: sgATF3, 10 nM | 115
sgRNA knockout: sgATF3, 100 nM | 113
sgRNA knockout: sgATF3, 1000 nM | 125
sgRNA knockout: sgATF3, 10000 nM | 126
sgRNA knockout: sgATF4, 10 nM | 100
sgRNA knockout: sgATF4, 100 nM | 94.9
sgRNA knockout: sgATF4, 1000 nM | 97.9
sgRNA knockout: sgATF4, 10000 nM | 115
sgRNA knockout: sgATF6, 10 nM | 86.8
sgRNA knockout: sgATF6, 100 nM | 79.2
sgRNA knockout: sgATF6, 1000 nM | 98.7
sgRNA knockout: sgATF6, 10000 nM | 89.8
sgRNA knockout: sgATG7, 10 nM | 98.1
sgRNA knockout: sgATG7, 100 nM | 95.1
sgRNA knockout: sgATG7, 1000 nM | 92
sgRNA knockout: sgATG7, 10000 nM | 112
sgRNA knockout: sgERN1, 10 nM | 108
sgRNA knockout: sgERN1, 100 nM | 101
sgRNA knockout: sgERN1, 1000 nM | 105
sgRNA knockout: sgERN1, 10000 nM | 118
sgRNA knockout: sgHSF1, 10 nM | 98.7
sgRNA knockout: sgHSF1, 100 nM | 89.3
sgRNA knockout: sgHSF1, 1000 nM | 78.2
sgRNA knockout: sgHSF1, 10000 nM | 110
sgRNA knockout: sgHSF2, 10 nM | 90.3
sgRNA knockout: sgHSF2, 100 nM | 87.4
sgRNA knockout: sgHSF2, 1000 nM | 117
sgRNA knockout: sgHSF2, 10000 nM | 93.7
sgRNA knockout: sgKEAP1, 10 nM | 99.5
sgRNA knockout: sgKEAP1, 100 nM | 104
sgRNA knockout: sgKEAP1, 1000 nM | 111
sgRNA knockout: sgKEAP1, 10000 nM | 98.4
sgRNA knockout: sgNFE2L2, 10 nM | 110
sgRNA knockout: sgNFE2L2, 100 nM | 79.6
sgRNA knockout: sgNFE2L2, 1000 nM | 98.3
sgRNA knockout: sgNFE2L2, 10000 nM | 111
sgRNA knockout: sgSLC35F2, 10 nM | 96.3
sgRNA knockout: sgSLC35F2, 100 nM | 86.1
sgRNA knockout: sgSLC35F2, 1000 nM | 94.7
sgRNA knockout: sgSLC35F2, 10000 nM | 87.8
sgRNA knockout: sgXBP1, 10 nM | 104
sgRNA knockout: sgXBP1, 100 nM | 91.5
sgRNA knockout: sgXBP1, 1000 nM | 116
sgRNA knockout: sgXBP1, 10000 nM | 123

O=C1CCC(N2C(=O)c3ccccc3C2=O)C(=O)N1 (configuration not stated) [Thalidomide]
Settings | relative cell number
sgRNA knockout: sgATF3, 10 nM | 102
sgRNA knockout: sgATF3, 100 nM | 96.5
sgRNA knockout: sgATF3, 1000 nM | 105
sgRNA knockout: sgATF3, 10000 nM | 101
sgRNA knockout: sgATF4, 10 nM | 92.8
sgRNA knockout: sgATF4, 100 nM | 77.3
sgRNA knockout: sgATF4, 1000 nM | 80
sgRNA knockout: sgATF4, 10000 nM | 101
sgRNA knockout: sgATF6, 10 nM | 78.6
sgRNA knockout: sgATF6, 100 nM | 97.2
sgRNA knockout: sgATF6, 1000 nM | 91
sgRNA knockout: sgATF6, 10000 nM | 105
sgRNA knockout: sgATG7, 10 nM | 97.2
sgRNA knockout: sgATG7, 100 nM | 91.8
sgRNA knockout: sgATG7, 1000 nM | 117
sgRNA knockout: sgATG7, 10000 nM | 102
sgRNA knockout: sgERN1, 10 nM | 117
sgRNA knockout: sgERN1, 100 nM | 62.7
sgRNA knockout: sgERN1, 1000 nM | 114
sgRNA knockout: sgERN1, 10000 nM | 111
sgRNA knockout: sgHSF1, 10 nM | 96.2
sgRNA knockout: sgHSF1, 100 nM | 73.7
sgRNA knockout: sgHSF1, 1000 nM | 80.9
sgRNA knockout: sgHSF1, 10000 nM | 93
sgRNA knockout: sgHSF2, 10 nM | 91.9
sgRNA knockout: sgHSF2, 100 nM | 86.1
sgRNA knockout: sgHSF2, 1000 nM | 93.8
sgRNA knockout: sgHSF2, 10000 nM | 95.7
sgRNA knockout: sgKEAP1, 10 nM | 98.3
sgRNA knockout: sgKEAP1, 100 nM | 72.7
sgRNA knockout: sgKEAP1, 1000 nM | 89.6
sgRNA knockout: sgKEAP1, 10000 nM | 96.2
sgRNA knockout: sgNFE2L2, 10 nM | 110
sgRNA knockout: sgNFE2L2, 100 nM | 89.4
sgRNA knockout: sgNFE2L2, 1000 nM | 115
sgRNA knockout: sgNFE2L2, 10000 nM | 124
sgRNA knockout: sgSLC35F2, 10 nM | 106
sgRNA knockout: sgSLC35F2, 100 nM | 80.3
sgRNA knockout: sgSLC35F2, 1000 nM | 97.1
sgRNA knockout: sgSLC35F2, 10000 nM | 89.2
sgRNA knockout: sgXBP1, 10 nM | 120
sgRNA knockout: sgXBP1, 100 nM | 77.3
sgRNA knockout: sgXBP1, 1000 nM | 130
sgRNA knockout: sgXBP1, 10000 nM | 128

Reference: the supplement of paper PMC7661543
